Data on 2 molecules can be found in patent US9180214B1 (STC.UNM, priority 2011, dated 2015).

Data set [1] can be described thus: general procedure: Fmoc solid-phase peptide synthesis; Rink amide resin. The settings on record: whole synthesis, scale of the general procedure Severity micromoles of resin (so in the source), 210 μmol of each.
The test system of a further data set is breast cancer. Conditions: cited from earlier work.

In the case of DOTA-Ahx-(D-Lys^6-GnRH1), in data set [1], the “final purity (method not given)” value was “greater than 90% purity”.

Turning to `OC[C@H]1O[C@@H](O)[C@H]([18F])[C@@H](O)[C@@H]1O` [[^18F]FDG, 2-[^18F]fluoro-2-deoxy-D-glucose], in the data set with breast cancer, the “sensitivity for small tumors <1 cm” value is 57% and the “sensitivity for tumors in-situ” value was 25%.
